This is one part of the list. Only hits are listed; about a third recur on repeated control peptides.
How the values were obtained:
Assay in all cases: PRISMA enrichment of interactor (LFQ) in peptide spot vs all other peptide spots (log2 fold change); higher = stronger / more specific binding of the interactor to the peptide
ASMTL, O95671 = target: ASMTL, O95671
Method: (§1)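 PRISMA: 15-aa overlapping tiles (offset 8 aa) of 60 microproteins, plus SOS1/GLUT1 control peptides, were spot-synthesized on cellulose membranes in triplicate. Membranes were incubated with benzonase-treated HEK293T lysate, and bound proteins were identified by LC-MS/MS with LFQ. Enrichment is the log2 fold change of each protein in one spot versus all other spots. Only interactors passing the significance cutoff are listed.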

Chains of the proteins cited; added tags and fusions are not shown.
SNX1, Q13596, UniProt Q13596, whole entry: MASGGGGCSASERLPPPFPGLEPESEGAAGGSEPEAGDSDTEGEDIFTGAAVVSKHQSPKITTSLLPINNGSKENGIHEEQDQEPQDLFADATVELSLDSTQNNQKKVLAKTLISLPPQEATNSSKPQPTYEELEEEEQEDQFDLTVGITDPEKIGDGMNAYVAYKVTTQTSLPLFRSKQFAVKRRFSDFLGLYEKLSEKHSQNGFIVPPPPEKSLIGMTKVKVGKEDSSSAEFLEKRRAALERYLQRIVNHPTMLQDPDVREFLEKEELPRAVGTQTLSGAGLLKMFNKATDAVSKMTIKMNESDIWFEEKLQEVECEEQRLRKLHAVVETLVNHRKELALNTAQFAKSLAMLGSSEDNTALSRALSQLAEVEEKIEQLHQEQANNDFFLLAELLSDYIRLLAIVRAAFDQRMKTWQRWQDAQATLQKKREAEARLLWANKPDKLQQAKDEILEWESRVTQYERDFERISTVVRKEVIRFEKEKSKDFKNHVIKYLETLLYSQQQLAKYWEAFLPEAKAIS
ASL, P04424, UniProt P04424, whole entry: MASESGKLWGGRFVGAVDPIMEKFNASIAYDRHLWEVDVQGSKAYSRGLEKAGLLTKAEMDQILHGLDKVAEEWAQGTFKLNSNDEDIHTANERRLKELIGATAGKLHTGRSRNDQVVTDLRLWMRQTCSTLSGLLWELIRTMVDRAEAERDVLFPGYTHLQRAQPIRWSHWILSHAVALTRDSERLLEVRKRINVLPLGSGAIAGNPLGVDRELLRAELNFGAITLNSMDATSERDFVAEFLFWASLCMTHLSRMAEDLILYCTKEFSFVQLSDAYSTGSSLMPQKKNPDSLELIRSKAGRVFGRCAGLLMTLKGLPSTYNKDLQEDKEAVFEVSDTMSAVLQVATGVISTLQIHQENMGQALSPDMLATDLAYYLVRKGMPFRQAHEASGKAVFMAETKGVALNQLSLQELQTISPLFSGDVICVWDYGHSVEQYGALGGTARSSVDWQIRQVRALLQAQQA
SNRPG, P62308, UniProt P62308, whole entry: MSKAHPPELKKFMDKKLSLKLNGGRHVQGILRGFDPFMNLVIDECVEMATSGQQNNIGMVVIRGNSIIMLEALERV
TUBB6, Q9BUF5, UniProt Q9BUF5, whole entry: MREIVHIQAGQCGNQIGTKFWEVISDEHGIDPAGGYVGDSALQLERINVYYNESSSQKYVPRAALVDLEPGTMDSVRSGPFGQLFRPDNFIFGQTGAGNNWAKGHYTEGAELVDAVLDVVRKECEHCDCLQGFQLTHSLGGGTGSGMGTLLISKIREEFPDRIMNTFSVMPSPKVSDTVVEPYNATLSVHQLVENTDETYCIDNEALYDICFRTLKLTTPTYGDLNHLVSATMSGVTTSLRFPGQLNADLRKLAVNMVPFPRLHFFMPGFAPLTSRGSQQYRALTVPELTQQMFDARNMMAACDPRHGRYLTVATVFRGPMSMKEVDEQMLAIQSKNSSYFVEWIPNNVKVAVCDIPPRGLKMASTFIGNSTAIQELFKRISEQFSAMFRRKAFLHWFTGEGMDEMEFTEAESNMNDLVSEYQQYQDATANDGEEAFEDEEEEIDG

DCAF13, Q9NV06 = target: DCAF13, Q9NV06
Method: as §1

ELP1, O95163 = target: ELP1, O95163
Method: as §1

LARP1, Q6PKG0 = target: LARP1, Q6PKG0
Method: as §1

NCAPG, Q9BPX3 = target: NCAPG, Q9BPX3
Method: as §1

PDCL3, Q9H2J4 = target: PDCL3, Q9H2J4
Method: as §1

S100A9, P06702 = target: S100A9, P06702
Method: as §1

SCRIB = target: SCRIB
Method: as §1

SLC25A17, O43808 = target: SLC25A17, O43808
Method: as §1

SNRPN, P63162 = target: SNRPN, P63162
Method: as §1

SNX1, Q13596 = target: SNX1, Q13596
Method: as §1

ASL, P04424 = target: ASL, P04424
Method: as §1

COPE, O14579 = target: COPE, O14579
Method: as §1

COQ8A, Q8NI60 = target: COQ8A, Q8NI60
Method: as §1

CPS1, P31327 = target: CPS1, P31327
Method: as §1

DDX51, Q8N8A6 = target: DDX51, Q8N8A6
Method: as §1

EI24, O14681 = target: EI24, O14681
Method: as §1

FAM98A, Q8NCA5 = target: FAM98A, Q8NCA5
Method: as §1

GYG1, P46976 = target: GYG1, P46976
Method: as §1

HOXB6, P17509 = target: HOXB6, P17509
Method: as §1

MRPS7, Q9Y2R9 = target: MRPS7, Q9Y2R9
Method: as §1

PNISR, Q8TF01 = target: PNISR, Q8TF01
Method: as §1

PRPF4, O43172 = target: PRPF4, O43172
Method: as §1

RABL6, Q3YEC7 = target: RABL6, Q3YEC7
Method: as §1

RTRAF, Q9Y224 = target: RTRAF, Q9Y224
Method: as §1

SNRPG, P62308 = target: SNRPG, P62308
Method: as §1

SRRM2, Q9UQ35 = target: SRRM2, Q9UQ35
Method: as §1

TRAF7, Q6Q0C0 = target: TRAF7, Q6Q0C0
Method: as §1

TUBB6, Q9BUF5 = target: TUBB6, Q9BUF5
Method: as §1

WDR46, O15213 = target: WDR46, O15213
Method: as §1

WTAP, Q15007 = target: WTAP, Q15007
Method: as §1

Binder | PRISMA enrichment of interactor (log2) (ASMTL, O95671) | PRISMA enrichment of interactor (log2) (DCAF13, Q9NV06) | PRISMA enrichment of interactor (log2) (ELP1, O95163) | PRISMA enrichment of interactor (log2) (LARP1, Q6PKG0) | PRISMA enrichment of interactor (log2) (NCAPG, Q9BPX3) | PRISMA enrichment of interactor (log2) (PDCL3, Q9H2J4) | PRISMA enrichment of interactor (log2) (S100A9, P06702) | PRISMA enrichment of interactor (log2) (SCRIB) | PRISMA enrichment of interactor (log2) (SLC25A17, O43808) | PRISMA enrichment of interactor (log2) (SNRPN, P63162) | PRISMA enrichment of interactor (log2) (SNX1, Q13596) | PRISMA enrichment of interactor (log2) (ASL, P04424) | PRISMA enrichment of interactor (log2) (COPE, O14579) | PRISMA enrichment of interactor (log2) (COQ8A, Q8NI60) | PRISMA enrichment of interactor (log2) (CPS1, P31327) | PRISMA enrichment of interactor (log2) (DDX51, Q8N8A6) | PRISMA enrichment of interactor (log2) (EI24, O14681) | PRISMA enrichment of interactor (log2) (FAM98A, Q8NCA5) | PRISMA enrichment of interactor (log2) (GYG1, P46976) | PRISMA enrichment of interactor (log2) (HOXB6, P17509) | PRISMA enrichment of interactor (log2) (MRPS7, Q9Y2R9) | PRISMA enrichment of interactor (log2) (PNISR, Q8TF01) | PRISMA enrichment of interactor (log2) (PRPF4, O43172) | PRISMA enrichment of interactor (log2) (RABL6, Q3YEC7) | PRISMA enrichment of interactor (log2) (RTRAF, Q9Y224) | PRISMA enrichment of interactor (log2) (SNRPG, P62308) | PRISMA enrichment of interactor (log2) (SRRM2, Q9UQ35) | PRISMA enrichment of interactor (log2) (TRAF7, Q6Q0C0) | PRISMA enrichment of interactor (log2) (TUBB6, Q9BUF5) | PRISMA enrichment of interactor (log2) (WDR46, O15213) | PRISMA enrichment of interactor (log2) (WTAP, Q15007)
RPAHFRILKVVLREA [PVT1] | 5.94 | 5.15 | 6.52 | 5.95 | 6.29 | 7.88 | 5.45 | 8.64 | 5.55 | 6.16 | 5.43 | – | – | – | – | – | – | – | – | – | – | – | – | – | – | – | – | – | – | – | –
CRSLHHGPVAPLFLH [PSMB8-AS1] | – | – | – | – | – | – | – | – | – | – | – | 4.61 | 4.91 | 4.38 | 6.35 | 5.76 | 6.41 | 5.12 | 4.38 | 3.6 | 7.23 | 4.51 | 5.85 | 6.02 | 5.5 | 5.56 | 6.18 | 5.8 | 4.55 | 7.73 | 4.44
